`NC(=O)NNc1ccccc1`: the log partition coefficient (logP) came out at 0.13.
Take `C1CN=C2CCCN2C1`: for the setting “pH 13.0”, the logD was -0.17.

These data come from the SangsterLogP compilation.
